Experimental data taken from article PMC11750563.
Results are given in words; binding and its absence hold for the method and conditions named. In cells and extracts the contact can be indirect. A yes stands for co-enrichment or nearness to the bait. Other partners may have been found.

Protein sequences, listed by entry. Tags and fused reporters are not part of them.
UniProt Q08J23: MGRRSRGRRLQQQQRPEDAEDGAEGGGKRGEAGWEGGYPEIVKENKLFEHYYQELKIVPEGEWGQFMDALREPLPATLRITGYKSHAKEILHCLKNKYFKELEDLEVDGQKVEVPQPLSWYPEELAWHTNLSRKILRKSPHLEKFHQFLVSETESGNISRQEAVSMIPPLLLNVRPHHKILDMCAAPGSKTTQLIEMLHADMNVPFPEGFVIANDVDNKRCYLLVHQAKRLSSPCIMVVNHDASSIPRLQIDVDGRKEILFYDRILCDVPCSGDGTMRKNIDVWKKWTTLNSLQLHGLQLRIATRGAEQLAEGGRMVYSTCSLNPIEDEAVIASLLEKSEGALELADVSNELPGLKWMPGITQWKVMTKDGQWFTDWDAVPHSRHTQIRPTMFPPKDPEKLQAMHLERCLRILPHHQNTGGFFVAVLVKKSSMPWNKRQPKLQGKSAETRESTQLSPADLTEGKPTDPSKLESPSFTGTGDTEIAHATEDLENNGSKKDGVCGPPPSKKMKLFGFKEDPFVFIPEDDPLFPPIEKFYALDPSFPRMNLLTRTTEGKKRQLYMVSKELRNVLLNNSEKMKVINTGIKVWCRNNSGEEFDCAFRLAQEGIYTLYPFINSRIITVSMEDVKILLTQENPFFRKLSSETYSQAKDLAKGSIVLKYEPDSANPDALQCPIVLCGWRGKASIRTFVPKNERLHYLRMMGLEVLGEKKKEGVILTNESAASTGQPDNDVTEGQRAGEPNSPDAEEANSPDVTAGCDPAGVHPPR

Target: Flag-NSUN2 (NOP2/Sun domain family member 2) (UniProt Q08J23)
Assay: affinity purification with mass spectrometry; Flag-NSUN2 from transfected HEK293 lysate held on Flag-M2 beads, 2 h at 4 °C; IP buffer 150 mM NaCl, 50 mM Tris-HCl pH 7.5, 1 % NP-40, 5 mM EDTA; silver staining and LC-MS/MS

- binding: binds
B1: N-α-acetyltransferase 10 (NAA10), endogenous (enzyme, UniProt P41227 1-235)
chain: MNIRNARPEDLMNMQHCNLLCLPENYQMKYYFYHGLSWPQLSYIAEDENGKIVGYVLAKMEEDPDDVPHGHITSLAVKRSHRRLGLAQKLMDQASRAMIENFNAKYVSLHVRKSNRAALHLYSNTLNFQISEVEPKYYADGEDAYAMKRDLTQMADELRRHLELKEKGRHVVLGAIENKVESKGNSPPSSGEACREEKGLAAEDSGGDSKDLSEVSETTESTDVKDSSEASDSAS
